Data: patent publication US11008314B2, “Compounds and methods for modulating interleukin-2-inducible t-cell kinase” (CORVUS PHARMACEUTICALS, INC., priority 2016, dated 2021)
For at least one compound, name, drawing or mass did not settle the structure.

Sequences of proteins named here, by UniProt entry; tags and fusion partners are left off.
UniProt P42681, whole entry, species assumed: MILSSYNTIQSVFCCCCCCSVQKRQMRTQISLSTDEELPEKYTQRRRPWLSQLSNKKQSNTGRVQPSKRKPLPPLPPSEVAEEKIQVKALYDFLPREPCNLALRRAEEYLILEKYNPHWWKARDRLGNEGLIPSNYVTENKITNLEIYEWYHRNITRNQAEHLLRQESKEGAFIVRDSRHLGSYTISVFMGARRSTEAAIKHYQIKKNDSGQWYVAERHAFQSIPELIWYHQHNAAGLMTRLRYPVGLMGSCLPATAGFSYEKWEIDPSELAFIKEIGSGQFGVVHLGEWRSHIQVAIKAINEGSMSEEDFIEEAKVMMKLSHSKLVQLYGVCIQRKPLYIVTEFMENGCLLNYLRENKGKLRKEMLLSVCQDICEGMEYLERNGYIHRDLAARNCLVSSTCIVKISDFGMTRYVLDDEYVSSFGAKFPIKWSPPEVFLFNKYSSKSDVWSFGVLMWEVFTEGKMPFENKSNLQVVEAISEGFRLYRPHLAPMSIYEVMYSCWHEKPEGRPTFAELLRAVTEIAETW

Target: TXK (Homo sapiens (Human), UniProt P42681)
Experiment: IC50 against TXK
Format: biochemical
Settings: ratio of TXK IC50 to ITK IC50

Structure (SMILES) | TXK/ITK
C=CC(=O)N1CCCN(C(=O)c2cc(Sc3cnc(NC(=O)C4CC4)s3)c(C)cc2OC)CCC1 [Compound 53] | 22.871
C=CC(=O)N1CCN(C(=O)c2cc(Sc3cnc(NC(=O)c4cccc(CN(C)C)c4)s3)c(C)cc2OC)C[C@H]1C#N [Compound 124] | 5.9
C=CC(=O)N1CCN(C(=O)c2cc(Sc3cnc(NC(=O)c4ccn(C)c4)s3)c(C)cc2OC)C[C@H]1CC [Compound 132] | 2.9
